Measured values: publication PMC9675754, “Structure of the human heparan sulfate polymerase complex EXT1-EXT2” (Nature Communications, 2022)
Positions count from the first letter of the chain named. In names and notes the source's numbering stands. These are yes or no findings as the source states them, for the method shown. Some results given as binding are weak or reduced against the parent protein; the word gives no strength.

Legend:
[1] = biological target: T1, human EXT2 aa47-aa718 D538N/D540N (human) (UniProt Q93063); test: co-purification of co-expressed proteins (immobilised metal affinity chromatography); both chains co-expressed and secreted from FreeStyle 293-F cells, both with C-terminal 8x His; two HisTrap HP steps with TEV cleavage between; 50 mM Tris pH 7.8, 150 mM NaCl, 4 °C
T1 sequence: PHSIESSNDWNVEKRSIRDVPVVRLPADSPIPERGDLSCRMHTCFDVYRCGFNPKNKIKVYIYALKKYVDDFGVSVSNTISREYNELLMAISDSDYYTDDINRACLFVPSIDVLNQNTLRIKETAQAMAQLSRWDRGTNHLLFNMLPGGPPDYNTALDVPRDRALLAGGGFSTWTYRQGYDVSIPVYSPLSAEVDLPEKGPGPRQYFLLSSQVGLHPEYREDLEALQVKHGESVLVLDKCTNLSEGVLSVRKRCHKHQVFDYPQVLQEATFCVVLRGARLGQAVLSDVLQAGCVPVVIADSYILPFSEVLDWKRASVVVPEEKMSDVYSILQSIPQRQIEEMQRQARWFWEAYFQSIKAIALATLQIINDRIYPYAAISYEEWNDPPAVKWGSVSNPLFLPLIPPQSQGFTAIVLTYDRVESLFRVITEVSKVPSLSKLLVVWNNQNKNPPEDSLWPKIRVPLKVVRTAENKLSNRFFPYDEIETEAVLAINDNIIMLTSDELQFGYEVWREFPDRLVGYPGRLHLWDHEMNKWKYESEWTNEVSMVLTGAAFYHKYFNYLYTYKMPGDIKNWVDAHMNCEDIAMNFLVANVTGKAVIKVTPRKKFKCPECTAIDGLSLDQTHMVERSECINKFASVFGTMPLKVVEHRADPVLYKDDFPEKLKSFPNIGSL

[2] = biological target: T2, human EXT2 aa47-aa718 R266A (human) (UniProt Q93063); test: as above
T2 sequence: T1 sequence with R220A, N492D, N494D

[3] = biological target: human EXT1 (exostosin-1), N-terminally truncated, aa29-aa746 (human) (UniProt Q16394); test: cryo-EM structure; 0.4 mg/mL purified, co-expressed EXT1-EXT2 with 1 mM UDP-GlcNAc, 1 mM UDP-GlcA and 1 mM MnCl2; single-particle analysis, 2.8 Å; both purified
[4] = biological target: T3, human EXT2 (exostosin-2), N-terminally truncated, aa47-aa718 (human) (UniProt Q93063); test: as above
T3 sequence (chain, N-linked glycan at Asn637): T1 sequence with N492D, N494D

[5] = biological target: T3, human EXT2 (exostosin-2), N-terminally truncated, aa47-aa718 (human); test: co-purification of co-expressed proteins (immobilised metal affinity chromatography); both chains co-expressed and secreted from FreeStyle 293-F cells, both with C-terminal 8x His; two HisTrap HP steps with TEV cleavage between; 50 mM Tris pH 7.8, 150 mM NaCl, 4 °C

B1: human EXT1 (exostosin-1), N-terminally truncated, aa29-aa746 (enzyme, UniProt Q16394 29-746, looked up)
chain: RASRSHSRREEHSGRNGLHHPSPDHFWPRFPDALRPFVPWDQLENEDSSVHISPRQKRDANSSIYKGKKCRMESCFDFTLCKKNGFKVYVYPQQKGEKIAESYQNILAAIEGSRFYTSDPSQACLFVLSLDTLDRDQLSPQYVHNLRSKVQSLHLWNNGRNHLIFNLYSGTWPDYTEDVGFDIGQAMLAKASISTENFRPNFDVSIPLFSKDHPRTGGERGFLKFNTIPPLRKYMLVFKGKRYLTGIGSDTRNALYHVHNGEDVVLLTTCKHGKDWQKHKDSRCDRDNTEYEKYDYREMLHNATFCLVPRGRRLGSFRFLEALQAACVPVMLSNGWELPFSEVINWNQAAVIGDERLLLQIPSTIRSIHQDKILALRQQTQFLWEAYFSSVEKIVLTTLEIIQDRIFKHISRNSLIWNKHPGGLFVLPQYSSYLGDFPYYYANLGLKPPSKFTAVIHAVTPLVSQSQPVLKLLVAAAKSQYCAQIIVLWNCDKPLPAKHRWPATAVPVVVIEGESKVMSSRFLPYDNIITDAVLSLDEDTVLSTTEVDFAFTVWQSFPERIVGYPARSHFWDNSKERWGYTSKWTNDYSMVLTGAAIYHKYYHYLYSHYLPASLKNMVDQLANCEDILMNFLVSAVTKLPPIKVTQKKQYKETMMGQTSRASRWADPDHFAQRQSCMNTFASWFGYMPLIHSQMRLDPVLFKDQVSILRKKYRDIERL
modifications: N-linked glycan at Asn330
notes: exostosin-1 (EXT1), human, residues 29-746, lacking the N-terminal transmembrane helix; Only obtained by co-expression with EXT2; Model built for aa89-aa728 with some loops missing; also called EXT1 WT; not shown: secreted alkaline phosphatase, N-terminal, cleaved; 8x His, C-terminal, kept
- binding [1]: binds
- binding [2]: binds
- binding [3]: no binding

B2: human EXT2 (exostosin-2), N-terminally truncated, aa47-aa718 (enzyme, UniProt Q93063 47-718, looked up)
chain: T1 sequence with N492D, N494D
modifications: N-linked glycan at Asn637
notes: exostosin-2 (EXT2), human, residues 47-718, lacking the N-terminal transmembrane helix; Only obtained by co-expression with EXT1; Model built for aa78-aa702 with some loops missing; also called EXT2 WT; not shown: secreted alkaline phosphatase, N-terminal, cleaved; 8x His, C-terminal, kept
- binding [4]: no binding

B3: human EXT1 aa29-aa746 R280A (enzyme, UniProt Q16394 29-746)
chain: B1 chain with R252A
- binding [5]: binds

B4: human EXT1 aa29-aa746 R346A (enzyme, UniProt Q16394 29-746)
chain: B1 chain with R318A
- binding [5]: binds

B5: human EXT1 aa29-aa746 D565N/D567N (enzyme, UniProt Q16394 29-746)
chain: B1 chain with D537N, D539N
- binding [5]: binds
